In patent US20190083616A1 (UNIVERSITY OF TENESSEE RESEARCH FOUNDATION, published 2019):
No constants are given. Whether binding was seen depends on the method and setting. In cells and extracts the contact can be indirect. Some binding calls cover weakened binding; strength is not graded here.

Amino acid sequences for entries named in this document (tags omitted). Residues count along the entry.
UniProt P10997, residues 34-70: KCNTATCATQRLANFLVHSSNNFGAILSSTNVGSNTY
UniProt P05067, residues 672-711: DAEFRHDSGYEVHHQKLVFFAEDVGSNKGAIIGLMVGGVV

Experiments:
[1] = biological target: synthetic islet amyloid polypeptide (IAPP) fibrils (UniProt P10997); assay: pulldown, 125I-peptide, 0.15 M NaCl (FIG. 13A)
[2] = biological target: synthetic Aβ(1-40) amyloid fibrils (UniProt P05067); assay: pulldown, 125I-peptide, 0.15 M NaCl (FIG. 13A)
[3] = biological target: synthetic islet amyloid polypeptide (IAPP) fibrils (UniProt P10997); assay: pulldown, 125I-peptide, synthetic fibrils
[4] = biological target: synthetic Aβ(1-40) amyloid fibrils (UniProt P05067); assay: pulldown, 125I-peptide, synthetic fibrils
[5] = biological target: synthetic islet amyloid polypeptide (IAPP) fibrils (UniProt P10997); assay: pulldown: 125I-labelled peptide with fibrils, amyloid extract or liver homogenate in PBST, 0.15 M NaCl; pellet cpm as % of total
[6] = biological target: synthetic Aβ(1-40) amyloid fibrils (UniProt P05067); assay: as above
[7] = biological target: synthetic islet amyloid polypeptide (IAPP) fibrils (UniProt P10997); assay: pulldown, 125I-peptide, 1.0 M NaCl (FIG. 13B)
[8] = biological target: synthetic Aβ(1-40) amyloid fibrils (UniProt P05067); assay: pulldown, 125I-peptide, 1.0 M NaCl (FIG. 13B)
[9] = biological target: synthetic islet amyloid polypeptide (IAPP) fibrils (UniProt P10997); assay: pulldown: 125I-labelled peptide with fibrils, amyloid extract or liver homogenate in PBST with 1 M NaCl; pellet cpm as % of total
[10] = biological target: synthetic Aβ(1-40) amyloid fibrils (UniProt P05067); assay: as above
[11] = biological target: synthetic islet amyloid polypeptide (IAPP) fibrils (UniProt P10997); assay: pulldown, peptope pre-incubated with fibrils, read out by 125I-7D8
[12] = biological target: synthetic Aβ(1-40) amyloid fibrils (UniProt P05067); assay: as above

Measured: binding

B1: peptope p66 (p5+14 - SVTVVT linker - 11-1F4 12-mer epitope …) (peptide)
peptide: KAQKAQAKQAKQAQKAQKAQAKQAKQAQKAQKAQAKQAKQSVTVVTKHYAAFPENLLI
binds: [1] | [2] | [3] | [4] | [5] | [6] | [7] | [8] | [9] | [10]

GGGYSKAQKAQAKQAKQAQKAQKAQAKQAKQAQHEDT [peptope p75 (p5 - QAQ spacer - HEDT)]
binds: [11] | [12]

GGGYSKAQKAQAKQAKQAQKAQKAQAKQAKQGGGHEDT [peptope p76 (p5 - GGG spacer - HEDT)]
binds: [11] | [12]

GGGYSKAQKAQAKQAKQAQKAQKAQAKQAKQGPGHEDT [peptope p77 (p5 - GPG spacer - HEDT)]
binds: [11] | [12]

GGGYSKAQKAQAKQAKQAQKAQKAQAKQAKQVTVHEDT [peptope p78 (p5 - VTV spacer - HEDT)]
binds: [11] | [12]
